No constants are given. Whether binding was seen depends on the method and setting. One block for each binder: values may come before it.
Target: FACT consisting of Spt16 and GST-tagged Pob3 (Saccharomyces cerevisiae) (UniProt P32558+Q04636)
Assay: pull-down; 0.5 μM GST-Pob3Spt16 as bait with 1 μM replisome factor, on ice 30 min, immobilised on glutathione agarose 90 min at 4°C, washed with buffer G (50 mM HEPES-NaOH pH 7.6, 300 mM NaCl, 0.05% NP-40), eluted with glutathione, SDS-PAGE; both purified

By UniProt entry, the sequences of proteins in these tests, tags left out. Where a name states a change or a piece, a line headed by the entry shows the natural chain unless it says otherwise.
UniProt P32558: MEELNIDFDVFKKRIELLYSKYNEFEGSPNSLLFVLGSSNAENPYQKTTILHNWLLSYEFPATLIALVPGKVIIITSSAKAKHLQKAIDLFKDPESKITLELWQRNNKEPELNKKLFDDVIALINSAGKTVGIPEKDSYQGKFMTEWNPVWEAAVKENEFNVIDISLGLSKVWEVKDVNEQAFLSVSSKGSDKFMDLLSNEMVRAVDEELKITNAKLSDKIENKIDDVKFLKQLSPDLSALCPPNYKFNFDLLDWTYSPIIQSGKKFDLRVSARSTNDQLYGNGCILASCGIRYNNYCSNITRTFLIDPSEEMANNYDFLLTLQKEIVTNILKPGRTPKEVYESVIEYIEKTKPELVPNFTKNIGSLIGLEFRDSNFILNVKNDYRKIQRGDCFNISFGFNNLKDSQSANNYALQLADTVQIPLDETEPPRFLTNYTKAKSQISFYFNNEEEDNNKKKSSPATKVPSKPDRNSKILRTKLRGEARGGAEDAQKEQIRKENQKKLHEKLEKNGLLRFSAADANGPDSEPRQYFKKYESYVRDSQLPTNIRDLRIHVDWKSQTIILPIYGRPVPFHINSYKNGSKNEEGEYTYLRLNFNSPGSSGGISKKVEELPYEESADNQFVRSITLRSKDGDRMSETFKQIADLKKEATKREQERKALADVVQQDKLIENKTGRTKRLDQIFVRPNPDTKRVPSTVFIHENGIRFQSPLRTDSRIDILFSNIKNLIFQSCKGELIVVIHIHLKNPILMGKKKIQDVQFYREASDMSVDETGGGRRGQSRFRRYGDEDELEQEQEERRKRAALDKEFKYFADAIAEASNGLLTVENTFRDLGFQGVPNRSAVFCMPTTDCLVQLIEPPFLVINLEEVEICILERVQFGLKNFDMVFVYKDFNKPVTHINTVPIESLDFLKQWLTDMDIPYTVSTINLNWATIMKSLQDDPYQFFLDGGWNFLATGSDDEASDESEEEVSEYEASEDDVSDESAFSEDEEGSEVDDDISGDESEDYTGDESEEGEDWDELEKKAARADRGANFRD
UniProt Q04636: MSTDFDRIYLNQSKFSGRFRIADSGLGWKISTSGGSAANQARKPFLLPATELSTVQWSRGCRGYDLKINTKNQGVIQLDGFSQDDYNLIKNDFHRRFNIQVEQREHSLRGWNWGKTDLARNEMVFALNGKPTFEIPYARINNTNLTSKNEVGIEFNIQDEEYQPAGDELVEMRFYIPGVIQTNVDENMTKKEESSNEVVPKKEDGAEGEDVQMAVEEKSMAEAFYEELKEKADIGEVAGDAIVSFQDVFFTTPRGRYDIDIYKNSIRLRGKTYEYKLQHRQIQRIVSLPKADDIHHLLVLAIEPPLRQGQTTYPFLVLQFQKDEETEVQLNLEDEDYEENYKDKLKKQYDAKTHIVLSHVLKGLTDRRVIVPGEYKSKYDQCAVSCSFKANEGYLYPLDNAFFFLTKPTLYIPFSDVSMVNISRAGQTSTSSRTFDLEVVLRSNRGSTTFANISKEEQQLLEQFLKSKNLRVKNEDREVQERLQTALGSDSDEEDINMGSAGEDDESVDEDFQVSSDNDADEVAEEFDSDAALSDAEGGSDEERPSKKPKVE

- binding: no binding (tested: 1 μM)
B1: Ctf4 (protein, UniProt Q01454 1-927)
chain: MVSVIDKLVFDFGGKTLVSLAPDNNTLCVANKNGLTKILKTNNPEEEPETLDSSKLVSSIKCYSNSHFLMTTMQGDALRYNIDSSQEELLARFALPLRDCCVIHSGKMAVFGGDDLELILLELDDETHKKHAIKIDEQVSQISYNSQMNILAVSMINGKVQIFSLTSTIPNKVHELNDYIVANSYDDTHRDKILSNMMDDIDKDNDNDLSETADPDENNVADPEFCAANRICTRVAWHPKGLHFALPCADDTVKIFSIKGYSLQKTLSTNLSSTKAHFIDLQFDPLRGTYIAAVDLNNKLTVWNWETSEIHYTREFKRKITNIAWKIQADSKTLDLVLGTWSGSIAIVQNLAESVVSNIPDQSVAESSTKHGLFVDSESDLENLEGNDDINKSDKLFSDITQEANAEDVFTQTHDGPSGLSEKRKYNFEDEEDFIDDDDGAGYISGKKPHNEHSYSRVHKTHSFPISLANTGKFRYMPFSPAGTPFGFTDRRYLTMNEVGYVSTVKNSEQYSITVSFFDVGRFREYHFEDLFGYDLCFLNEKGTLFGQSKTGQIQYRPHDSIHSNWTKIIPLQAGERITSVAATPVRVIVGTSLGYFRSFNQFGVPFAVEKTSPIVALTAQNYRVFSVHYSQFHGLSYSLSELGTSSKRYYKRECPLPMSLPNINSDMKKDANLDYYNFNPMGIKSLFFSSYGDPCIFGSDNTLLLLSKWRSPEESKWLPILDSNMEIWKMSGGKETTDIHVWPLALAYDTLNCILVKGKHIWPEFPLPLPSEMEIRMPVFVKSKLLEENKAILNKKNEIGADTEAEEGEEDKEIQIPVSMAAEEEYLRSKVLSELLTDTLENDGEMYGNENEVLAALNGAYDKALLRLFASACSDQNVEKALSLAHELKQDRALTAAVKISERAELPSLVKKINNIREARYEQQLK

- binding: no binding (tested: 1 μM)
B2: Cdc45 (protein, UniProt Q08032 1-650)
chain: MYYGISQFSEAYNKILRNSSSHSSCQLVIFVSCLNIDALCATKMLSLLFKKQLVQSQIVPIFGYSELRRHYSQLDDNINSLLLVGFGGVIDLEAFLEIDPQEYVIDTDEKSGEQSFRRDIYVLDAHRPWNLDNIFGSQIIQCFDDGTVDDTLGEQKEAYYKLLELDEESGDDELSGDENDNNGGDDEATDADEVTDEDEEDEDETISNKRGNSSIGPNDLSKRKQRKKQIHEYEGVLEEYYSQGTTVVNSISAQIYSLLSAIGETNLSNLWLNILGTTSLDIAYAQVYNRLYPLLQDEVKRLTPSSRNSVKTPDTLTLNIQPDYYLFLLRHSSLYDSFYYSNYVNAKLSLWNENGKKRLHKMFARMGIPLSTAQETWLYMDHSIKRELGIIFDKNLDRYGLQDIIRDGFVRTLGYRGSISASEFVEALTALLEVGNSTDKDSVKINNDNNDDTDGEEEEDNSAQKLTNLRKRWVSNFWLSWDALDDRKVELLNRGIQLAQDLQRAIFNTGVAILEKKLIKHLRIYRLCVLQDGPDLDLYRNPLTLLRLGNWLIECCAESEDKQLLPMVLASIDENTDTYLVAGLTPRYPRGLDTIHTKKPILNNFSMAFQQITAETDAKVRIDNFESSIIEIRREDLSPFLEKLTLSGLL

Reference: article PMC8860610
